According to patent publication US20030045680A1, “Peptidic modulators of the androgen receptor” (Praecis Pharmaceuticals Inc., priority 2001, published 2003):
The exact form of at least one protein or probe is not confirmed. Tags and fusion partners may be left off the protein sequences shown.

Target: T1, GST-androgen receptor DNA binding domain (GST-DBD) (Homo sapiens) (UniProt P10275)
T1 sequence (looked up): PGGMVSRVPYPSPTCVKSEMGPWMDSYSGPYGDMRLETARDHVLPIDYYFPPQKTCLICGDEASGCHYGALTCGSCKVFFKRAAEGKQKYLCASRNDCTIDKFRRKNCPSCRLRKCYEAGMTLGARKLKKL
Assay: binding assay
Settings: electrochemiluminescence bead assay (IGEN ORIGEN), Ru-labelled anti-GST antibody, streptavidin beads; PBS pH 7.2, 100 ng/ml poly dI/dC, room temperature; purified recombinant protein; protein details: GST fusion, obtained from Dr. Steven Balk; label: 5'-biotin on SEQ 54 strand

“AGTCTGGTACAGGGTGTTCTTTTTA (double strand) [biotinylated ARE duplex oligonucleotide]”: binds.
